Reference: patent US11779618B2, “Treatment of topical and systemic bacterial infections” (priority 2014, dated 2023)
≈ marks a conversion by molar mass, not a printed value.

Tested on: S. aureus 8588
Assay: Effectiveness against S. aureus 8588 (absorbance, Mueller-Hinton broth)
Format: cell-based
Settings: Staphylococcus aureus
Text: The absorbance readings of treatments above the MIC were similar to the negative control of Mueller-Hinton broth alone indicating no bacterial growth.
The absorbance readings of the phage K treated wells were similar to the negative control Mueller-Hinton broth alone.

- MIC: 20 µg/mL (≈ 57.2 µM)
SMILES: CC1(C)S[C@@H]2[C@H](NC(=O)[C@H](N)c3ccccc3)C(=O)N2[C@H]1C(=O)O [ampicillin]
